Here are results for two substances from paper PMC4658663.

The chains behind the UniProt entries cited, without tags or fusion partners. Where a name states a change or a piece, a line headed by the entry shows the natural chain unless it says otherwise.
UniProt P25100: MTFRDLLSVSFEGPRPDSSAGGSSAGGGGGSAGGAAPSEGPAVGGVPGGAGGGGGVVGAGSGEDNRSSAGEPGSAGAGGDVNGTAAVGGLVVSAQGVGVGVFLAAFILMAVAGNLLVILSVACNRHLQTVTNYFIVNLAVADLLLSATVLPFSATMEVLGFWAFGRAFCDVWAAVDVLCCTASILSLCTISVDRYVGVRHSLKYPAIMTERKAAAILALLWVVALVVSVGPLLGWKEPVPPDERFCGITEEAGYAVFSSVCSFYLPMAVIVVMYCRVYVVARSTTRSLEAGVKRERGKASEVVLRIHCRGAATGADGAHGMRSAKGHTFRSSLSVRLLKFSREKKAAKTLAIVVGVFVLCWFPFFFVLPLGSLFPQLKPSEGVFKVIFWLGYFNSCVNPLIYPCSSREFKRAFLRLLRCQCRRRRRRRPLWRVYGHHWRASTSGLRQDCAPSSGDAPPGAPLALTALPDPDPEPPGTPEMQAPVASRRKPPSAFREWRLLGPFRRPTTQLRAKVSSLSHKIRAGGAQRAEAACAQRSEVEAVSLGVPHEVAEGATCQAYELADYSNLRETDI
UniProt Q14160: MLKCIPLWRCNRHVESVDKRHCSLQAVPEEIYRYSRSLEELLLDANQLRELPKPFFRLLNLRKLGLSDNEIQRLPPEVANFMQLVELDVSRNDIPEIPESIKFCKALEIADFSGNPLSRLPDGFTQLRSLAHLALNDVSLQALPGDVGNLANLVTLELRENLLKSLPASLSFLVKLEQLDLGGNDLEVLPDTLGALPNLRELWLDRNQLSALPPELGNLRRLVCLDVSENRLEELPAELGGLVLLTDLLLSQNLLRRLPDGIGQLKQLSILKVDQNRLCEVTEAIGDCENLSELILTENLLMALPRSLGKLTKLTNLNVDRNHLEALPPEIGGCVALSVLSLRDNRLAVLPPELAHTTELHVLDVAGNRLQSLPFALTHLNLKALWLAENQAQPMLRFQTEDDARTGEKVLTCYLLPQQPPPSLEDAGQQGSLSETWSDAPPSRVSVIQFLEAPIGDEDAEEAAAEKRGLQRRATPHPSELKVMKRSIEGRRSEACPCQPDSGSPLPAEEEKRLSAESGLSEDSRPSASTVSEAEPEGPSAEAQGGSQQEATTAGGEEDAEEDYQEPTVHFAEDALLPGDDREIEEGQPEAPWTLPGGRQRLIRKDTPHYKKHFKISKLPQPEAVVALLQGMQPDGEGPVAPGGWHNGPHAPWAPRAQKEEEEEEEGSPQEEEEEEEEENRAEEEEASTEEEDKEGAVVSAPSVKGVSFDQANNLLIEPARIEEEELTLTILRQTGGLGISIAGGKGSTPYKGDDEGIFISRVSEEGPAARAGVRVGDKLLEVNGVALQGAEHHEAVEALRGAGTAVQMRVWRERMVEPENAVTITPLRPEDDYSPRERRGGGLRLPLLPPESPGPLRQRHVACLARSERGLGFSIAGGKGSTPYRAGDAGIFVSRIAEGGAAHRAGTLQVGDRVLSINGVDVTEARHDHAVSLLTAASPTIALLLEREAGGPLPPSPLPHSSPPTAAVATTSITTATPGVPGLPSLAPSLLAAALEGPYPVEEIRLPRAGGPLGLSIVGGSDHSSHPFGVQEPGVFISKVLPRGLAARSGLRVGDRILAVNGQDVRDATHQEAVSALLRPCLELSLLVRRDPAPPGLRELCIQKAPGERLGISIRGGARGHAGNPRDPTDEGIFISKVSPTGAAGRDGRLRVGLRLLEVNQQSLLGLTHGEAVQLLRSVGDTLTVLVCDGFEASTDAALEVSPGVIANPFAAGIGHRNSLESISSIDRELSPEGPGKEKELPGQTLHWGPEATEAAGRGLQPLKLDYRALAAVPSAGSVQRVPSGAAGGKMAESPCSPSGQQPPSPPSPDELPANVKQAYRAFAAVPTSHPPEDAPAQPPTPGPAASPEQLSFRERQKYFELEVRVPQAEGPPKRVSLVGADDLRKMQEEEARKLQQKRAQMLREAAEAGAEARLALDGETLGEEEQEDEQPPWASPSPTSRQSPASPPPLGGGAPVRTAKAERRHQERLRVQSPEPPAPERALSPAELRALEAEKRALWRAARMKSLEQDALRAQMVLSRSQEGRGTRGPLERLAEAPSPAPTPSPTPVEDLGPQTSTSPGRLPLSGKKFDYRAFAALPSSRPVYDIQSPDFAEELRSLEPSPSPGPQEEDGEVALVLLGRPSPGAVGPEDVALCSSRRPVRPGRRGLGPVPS

These are yes or no findings as the source states them, for the method shown. In cells and extracts the contact can be indirect. For part of these data: Binding can be weak; no strength is given.

In assay [1] the target is TAP–ADRA1D-ΔPDZ (human) (UniProt P25100). As to the kind of experiment: pull-down; as a7, with Myc–ADRA1D co-expressed with the TAP-tagged bait; western blot. Background: A western blot detects proteins with antibodies after separation by electrophoresis.
The target is the same in assay [2]. As to the kind of experiment: pull-down; TAP-tagged bait purified from cleared cell lysate (0.5% digitonin, 75 mM Tris pH 8.0, 2 mM EDTA, 5 mM MgCl2, 1 mM DTT) on streptavidin sepharose, 3 h at 4 °C; western blot.

In the case of “Myc–ADRA1D (from UniProt P25100 1-572) (receptor)”, in assay [1], the binding result is on record as “binds”.
Turning to “Scribble (SCRIB), endogenous (from UniProt Q14160 1-1655)”, the binding result in assay [1] and in assay [2] was “no binding” in each case.
